Results are given in words; binding and its absence hold for the method and conditions named. Binding seen in cells or lysates may run through a third protein.

Amino acid sequences for entries named in this document (tags omitted).
UniProt Q4KUS2: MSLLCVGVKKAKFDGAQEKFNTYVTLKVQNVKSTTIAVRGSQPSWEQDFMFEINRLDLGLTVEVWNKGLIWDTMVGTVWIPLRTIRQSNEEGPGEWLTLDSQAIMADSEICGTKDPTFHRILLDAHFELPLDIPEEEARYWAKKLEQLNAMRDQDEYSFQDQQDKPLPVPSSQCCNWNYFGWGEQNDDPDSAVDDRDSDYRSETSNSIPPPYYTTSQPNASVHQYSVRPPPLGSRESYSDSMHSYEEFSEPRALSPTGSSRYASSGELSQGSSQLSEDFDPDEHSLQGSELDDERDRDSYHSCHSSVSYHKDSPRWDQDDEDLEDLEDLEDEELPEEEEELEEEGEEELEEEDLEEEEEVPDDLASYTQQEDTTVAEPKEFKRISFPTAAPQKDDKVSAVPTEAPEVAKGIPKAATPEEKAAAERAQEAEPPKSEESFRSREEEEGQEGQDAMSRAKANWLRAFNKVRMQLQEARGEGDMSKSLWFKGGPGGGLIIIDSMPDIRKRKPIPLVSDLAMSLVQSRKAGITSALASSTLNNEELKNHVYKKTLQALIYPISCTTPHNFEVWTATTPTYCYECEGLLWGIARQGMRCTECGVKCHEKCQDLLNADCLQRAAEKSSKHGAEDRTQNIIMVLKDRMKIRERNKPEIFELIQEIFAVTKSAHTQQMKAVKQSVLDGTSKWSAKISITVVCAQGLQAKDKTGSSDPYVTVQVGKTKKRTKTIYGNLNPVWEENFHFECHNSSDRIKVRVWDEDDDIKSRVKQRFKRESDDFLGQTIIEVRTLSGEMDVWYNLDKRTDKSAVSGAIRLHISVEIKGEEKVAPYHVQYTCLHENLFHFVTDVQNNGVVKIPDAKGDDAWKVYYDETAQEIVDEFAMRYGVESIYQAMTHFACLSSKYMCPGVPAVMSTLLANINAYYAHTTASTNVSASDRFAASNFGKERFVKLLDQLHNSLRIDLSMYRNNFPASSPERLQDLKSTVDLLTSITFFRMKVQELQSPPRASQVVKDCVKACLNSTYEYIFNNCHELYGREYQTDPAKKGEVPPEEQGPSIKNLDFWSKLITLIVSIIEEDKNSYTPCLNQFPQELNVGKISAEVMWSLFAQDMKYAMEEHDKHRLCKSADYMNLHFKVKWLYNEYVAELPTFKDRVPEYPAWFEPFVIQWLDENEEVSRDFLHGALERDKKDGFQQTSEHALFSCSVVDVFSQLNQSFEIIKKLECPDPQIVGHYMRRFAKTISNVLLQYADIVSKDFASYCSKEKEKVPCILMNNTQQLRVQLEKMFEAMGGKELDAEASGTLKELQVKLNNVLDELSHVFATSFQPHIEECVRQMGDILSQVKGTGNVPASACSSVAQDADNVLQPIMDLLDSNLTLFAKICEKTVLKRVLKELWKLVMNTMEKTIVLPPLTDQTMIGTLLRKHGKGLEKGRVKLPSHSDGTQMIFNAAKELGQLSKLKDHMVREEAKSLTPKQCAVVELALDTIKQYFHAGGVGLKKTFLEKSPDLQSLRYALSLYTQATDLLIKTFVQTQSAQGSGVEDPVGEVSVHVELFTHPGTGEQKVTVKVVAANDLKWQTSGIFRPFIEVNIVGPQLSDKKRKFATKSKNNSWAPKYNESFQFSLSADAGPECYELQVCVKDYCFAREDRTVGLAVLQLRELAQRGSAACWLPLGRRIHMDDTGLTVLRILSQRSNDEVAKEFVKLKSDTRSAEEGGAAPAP
UniProt Q9R0N7: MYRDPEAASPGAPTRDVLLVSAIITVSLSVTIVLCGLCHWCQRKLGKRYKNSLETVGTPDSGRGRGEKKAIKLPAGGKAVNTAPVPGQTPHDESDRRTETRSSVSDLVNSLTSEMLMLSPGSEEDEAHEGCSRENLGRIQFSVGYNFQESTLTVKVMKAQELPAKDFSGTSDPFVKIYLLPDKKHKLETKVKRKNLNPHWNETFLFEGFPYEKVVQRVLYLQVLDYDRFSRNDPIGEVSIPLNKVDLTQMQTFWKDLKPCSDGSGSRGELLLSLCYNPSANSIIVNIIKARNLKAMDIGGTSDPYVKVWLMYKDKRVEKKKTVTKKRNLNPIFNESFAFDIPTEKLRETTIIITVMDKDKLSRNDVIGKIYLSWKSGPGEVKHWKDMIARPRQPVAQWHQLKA

This experiment concerns the target Munc13-1 (mouse (endogenous in mouse brain)) (UniProt Q4KUS2). The experiment in a line: co-IP; mouse monoclonal anti-Munc13-1 (3H5) and Sepharose-Protein G beads on solubilised P2 synaptosomal fraction of WT mouse cerebral cortex; 50 mM Tris/HCl pH 8, 150 mM NaCl, 1 mM CaCl2, 1 mM EGTA, 1% IGEPAL; five washes with 0.1% IGEPAL; blot for Munc13-1 and Syt7.

As to “Synaptotagmin-7 (from UniProt Q9R0N7 1-403)”, the binding result is on record as “no binding”.

These data come from publication PMC9581527.
